# From PubChem BioAssay AID256 (DTP/NCI, 2004)
# The list shows only some results of the screen, not a fair sample: it is rich in T/C values a quarter to a half above the control, in often repeated tests (any T/C) and in doses without a T/C. Other doses and runs of a compound stand elsewhere. T/C gives the treated animals as a percentage of the vehicle group. Some doses have a count of surviving animals in place of a T/C: the source holds a T/C of zero for them, seemingly a mark for toxic or unscored doses. Some survivor counts are full or nearly so, which does not show that the dose was tolerated: the source hardly ever lists a survival T/C far under the control, and the zero likely stands for such cases as well. Counts of survivors are from the toxicity check (mostly the fifth day) where no day follows; animals may have died later. Schedules are NCI's codes, read here as Q, the interval in days (D) or hours (H), X, the number of doses. Some schedule codes hold Z or #, which are not explained here. For survival time, this PubChem deposit counts one and a half times the control or more as active, and values a quarter to a half above the control carry no call in these data; other NCI protocols may use other cut-offs. Some doses were run more than once; the results are listed from low to high. Some T/C values carry the count of animals alive at the toxicity check (mostly the fifth day); without a count, all were alive then.
# Test system: CD2F1 mice, L1210 leukemia ip, survival T/C
# Experiment: NCI In Vivo Anticancer Drug Screen. Data for tumor model L1210 Leukemia (intraperitoneal) in CD2F1 (CDF1) mice
# Conditions: higher T/C = longer survival
# How it was run: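 Implant tumor; dose compound or vehicle; measure endpoint in both groups; report treated divided by control.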
# [1] = T/C endpoint: mean survival time, dose: 200.0 mg/kg/injection, schedule: Q04DX003 (ip), vehicle: saline
# [2] = T/C endpoint: mean survival time, dose: 400.0 mg/kg/injection, schedule: Q04DX003 (ip), vehicle: saline
# [3] = T/C endpoint: mean survival time, dose: 200.0 mg/kg/injection, schedule: Q04DX003 (ip), vehicle: saline with Tween-80
# [4] = T/C endpoint: mean survival time, dose: 400.0 mg/kg/injection, schedule: Q04DX003 (ip), vehicle: saline with Tween-80
structure (smiles),measurement,setting,value
O=C(Nc1cccc2ccccc12)OC1CCCCC1Br (stereo not drawn),survivor count,"T/C endpoint: mean survival time, dose: 25.0 mg/kg/injection, schedule: Q01DX001 (ip), vehicle: saline with Tween-80",3 of 3
CCCCN(CCCC)CCNc1ccc(C)c2sc3ccccc3c(=O)c12,survivor count,[1],6 of 6
OCC1OC(n2cnc3c(=S)nc[nH]c32)C(O)C1O (stereo not drawn),T/C,"T/C endpoint: mean survival time, dose: 30.0 mg/kg/injection, schedule: Q01DX005 (ip), vehicle: saline",131 % of control
same,T/C,"T/C endpoint: mean survival time, dose: 60.0 mg/kg/injection, schedule: Q01DX005 (ip), vehicle: saline",134 % of control
same,T/C,"T/C endpoint: mean survival time, dose: 100.0 mg/kg/injection, schedule: Q01DX009 (ip), vehicle: saline",137 % of control
same,T/C,"T/C endpoint: mean survival time, dose: 100.0 mg/kg/injection, schedule: Q03DX003 (ip), vehicle: saline",137 % of control
same,T/C,"T/C endpoint: mean survival time, dose: 120.0 mg/kg/injection, schedule: Q01DX005 (ip), vehicle: saline",141 % of control
same,T/C,"T/C endpoint: mean survival time, dose: 150.0 mg/kg/injection, schedule: Q01DX010 (ip), vehicle: saline",137 % of control
same,T/C,"T/C endpoint: mean survival time, dose: 200.0 mg/kg/injection, schedule: Q01DX005 (ip), vehicle: saline",141 % of control
same,T/C,"T/C endpoint: mean survival time, dose: 200.0 mg/kg/injection, schedule: Q01DX007 (ip), vehicle: Klucel (hydroxypropylcellulose) (HPC)",125 % of control
same,T/C,"T/C endpoint: mean survival time, dose: 200.0 mg/kg/injection, schedule: Q01DX009 (ip), vehicle: Klucel (hydroxypropylcellulose) (HPC)",126 % of control
same,T/C,"T/C endpoint: mean survival time, dose: 200.0 mg/kg/injection, schedule: Q01DX009 (ip), vehicle: saline",144 % of control
same,T/C,"T/C endpoint: mean survival time, dose: 225.0 mg/kg/injection, schedule: Q01DX010 (ip), vehicle: saline",130 % of control
same,T/C,"T/C endpoint: mean survival time, dose: 300.0 mg/kg/injection, schedule: Q01DX005 (ip), vehicle: saline, evaluated on day 35",130 % of control
same,T/C,"T/C endpoint: mean survival time, dose: 300.0 mg/kg/injection, schedule: Q01DX005 (ip), vehicle: saline, run until all animals had died",127 % of control
same,T/C,"T/C endpoint: mean survival time, dose: 300.0 mg/kg/injection, schedule: Q01DX009 (ip), vehicle: saline, evaluated on day 35",128 % of control
same,T/C,"T/C endpoint: mean survival time, dose: 300.0 mg/kg/injection, schedule: Q01DX009 (ip), vehicle: saline, run until all animals had died",129 % of control
same,T/C,"T/C endpoint: mean survival time, dose: 300.0 mg/kg/injection, schedule: Q01DX010 (ip), vehicle: saline",148 % of control
same,T/C,"T/C endpoint: mean survival time, dose: 300.0 mg/kg/injection, schedule: Q03HX024 (ip), vehicle: saline, evaluated on day 35",127 % of control
same,T/C,"T/C endpoint: mean survival time, dose: 300.0 mg/kg/injection, schedule: Q03HX024 (ip), vehicle: saline, run until all animals had died",125 % of control
same,T/C,"T/C endpoint: mean survival time, dose: 400.0 mg/kg/injection, schedule: Q01DX007 (ip), vehicle: Klucel (hydroxypropylcellulose) (HPC)",145 % of control
same,T/C,"T/C endpoint: mean survival time, dose: 400.0 mg/kg/injection, schedule: Q01DX009 (ip), vehicle: Klucel (hydroxypropylcellulose) (HPC)",147 % of control
same,T/C,"T/C endpoint: mean survival time, dose: 400.0 mg/kg/injection, schedule: Q01DX010 (ip), vehicle: saline",148 % of control
same,T/C,"T/C endpoint: mean survival time, dose: 600.0 mg/kg/injection, schedule: Q01DX005 (ip), vehicle: saline, evaluated on day 35",144 % of control
same,T/C,"T/C endpoint: mean survival time, dose: 600.0 mg/kg/injection, schedule: Q01DX005 (ip), vehicle: saline, run until all animals had died",132 % of control
same,T/C,"T/C endpoint: mean survival time, dose: 600.0 mg/kg/injection, schedule: Q01DX009 (ip), vehicle: saline, evaluated on day 35",136 % of control
same,T/C,"T/C endpoint: mean survival time, dose: 600.0 mg/kg/injection, schedule: Q01DX009 (ip), vehicle: saline, run until all animals had died",129 % of control [9 of 10 alive]
same,T/C,"T/C endpoint: mean survival time, dose: 600.0 mg/kg/injection, schedule: Q03HX024 (ip), vehicle: saline, evaluated on day 35",133 % of control [9 of 10 alive]
same,T/C,"T/C endpoint: mean survival time, dose: 600.0 mg/kg/injection, schedule: Q03HX024 (ip), vehicle: saline, run until all animals had died",132 % of control
same,T/C,"T/C endpoint: mean survival time, dose: 900.0 mg/kg/injection, schedule: Q01DX002 (sc), vehicle: saline",129 % of control
same,T/C,"T/C endpoint: mean survival time, dose: 1200.0 mg/kg/injection, schedule: Q01DX002 (sc), vehicle: saline",133 % of control
same,T/C,"T/C endpoint: mean survival time, dose: 1200.0 mg/kg/injection, schedule: Q01DX005 (ip), vehicle: saline",125 % of control
same,T/C,"T/C endpoint: mean survival time, dose: 1200.0 mg/kg/injection, schedule: Q03HX008 (ip), vehicle: saline",141 % of control
same,T/C,"T/C endpoint: mean survival time, dose: 1200.0 mg/kg/injection, schedule: Q04DX003 (ip), vehicle: saline",136 % of control
same,survivor count,"T/C endpoint: mean survival time, dose: 2400.0 mg/kg/injection, schedule: Q01DX005 (ip), vehicle: saline",5 of 10
same,T/C,"T/C endpoint: mean survival time, dose: 2400.0 mg/kg/injection, schedule: Q03HX008 (ip), vehicle: saline",147 % of control
same,T/C,"T/C endpoint: mean survival time, dose: 2400.0 mg/kg/injection, schedule: Q03HX024 (ip), vehicle: saline",145 % of control [9 of 10 alive]
same,T/C,"T/C endpoint: mean survival time, dose: 2400.0 mg/kg/injection, schedule: Q04DX003 (ip), vehicle: saline",126 % of control [9 of 10 alive]
same,T/C,"T/C endpoint: mean survival time, dose: 2400.0 mg/kg/injection, schedule: Q08DX002 (ip), vehicle: saline",135 % of control
same,T/C,"T/C endpoint: median survival time, dose: 25.0 mg/kg/injection, schedule: Q01DX005 (ip), vehicle: water",125 % of control
same,T/C,"T/C endpoint: median survival time, dose: 50.0 mg/kg/injection, schedule: Q01DX005 (ip), vehicle: water",130 % of control
same,T/C,"T/C endpoint: median survival time, dose: 80.0 mg/kg/injection, schedule: Q01DX009 (ip), vehicle: saline",127 and 142 % of control
same,T/C,"T/C endpoint: median survival time, dose: 100.0 mg/kg/injection, schedule: Q01DX005 (ip), vehicle: water",134 % of control
same,T/C,"T/C endpoint: median survival time, dose: 200.0 mg/kg/injection, schedule: Q01DX005 (ip), vehicle: water",143 % of control
same,T/C,"T/C endpoint: median survival time, dose: 320.0 mg/kg/injection, schedule: Q01DX009 (ip), vehicle: saline",127 % of control [5 of 6 alive]
same,T/C,"T/C endpoint: median survival time, dose: 800.0 mg/kg/injection, schedule: Q01DX005 (ip), vehicle: water",143 % of control [5 of 6 alive]
COC1OCC(O)C(NC(=O)N(C)N=O)C1O (stereo not drawn),T/C,"T/C endpoint: mean survival time, dose: 22.0 mg/kg/injection, schedule: Q01DX009 (ip), vehicle: saline",141 % of control
same,T/C,"T/C endpoint: mean survival time, dose: 33.0 mg/kg/injection, schedule: Q01DX009 (ip), vehicle: saline",135 % of control
CCN(CC)Cc1ccccn1,survivor count,[1],2 of 6
same,survivor count,[2],0 of 6
COc1cc(OC)c(NC(=O)Nc2c(C)n(C)n(-c3ccccc3)c2=O)cc1Cl,survivor count,"T/C endpoint: mean survival time, dose: 100.0 mg/kg/injection, schedule: Q01DX009 (ip), vehicle: saline with Tween-80",3 of 3
C1=C[N]2c3c4c(ccc3=C1)=CC=C[N]4[Ga]2[c]1ccccc1,survivor count,[3],3 of 6
same,survivor count,[4],0 of 6
COc1ccc(C(=O)C(C)(C)C)cc1,survivor count,"T/C endpoint: mean survival time, dose: 50.0 mg/kg/injection, schedule: Q04DX002 (ip), vehicle: saline with Tween-80",3 of 3
same,survivor count,"T/C endpoint: mean survival time, dose: 400.0 mg/kg/injection, schedule: Q04DX002 (ip), vehicle: saline with Tween-80",3 of 3
O=CN(O)CC(=O)O.[Ni],survivor count,"T/C endpoint: mean survival time, dose: 50.0 mg/kg/injection, schedule: Q04DX003 (ip), vehicle: saline",4 of 6
same,survivor count,"T/C endpoint: mean survival time, dose: 100.0 mg/kg/injection, schedule: Q04DX003 (ip), vehicle: saline",0 of 6
same,survivor count,[1],0 of 6
same,survivor count,[2],0 of 6
Clc1n[nH]c(Cl)n1,survivor count,[3],2 of 6
same,survivor count,[4],0 of 6
COC(=O)C1C(O)C(C)C(O)C(C)(O)C=C(C)C2=C3C(=C(C)C(=O)c4c(O)c(c(C)c(OC(C)=O)c43)NC(=O)C(C)=C/C=C\C(C)(O)C(O)C(C)C1O)OCO2 (stereo not drawn),survivor count,[3],3 of 6
same,survivor count,[4],0 of 6
O=C1OC(C(Cl)(Cl)Cl)OC1C(Cl)(Cl)Cl (stereo not drawn),survivor count,"T/C endpoint: mean survival time, dose: 200.0 mg/kg/injection, schedule: Q01DX001 (ip), vehicle: saline with Tween-80",3 of 6
same,survivor count,"T/C endpoint: mean survival time, dose: 400.0 mg/kg/injection, schedule: Q01DX001 (ip), vehicle: saline with Tween-80",0 of 6
Oc1ccc(SCc2ccc(NCc3ccccc3)cc2)cc1,survivor count,"T/C endpoint: mean survival time, dose: 200.0 mg/kg/injection, schedule: Q01DX009 (ip), vehicle: DMSO",2 of 6
same,survivor count,"T/C endpoint: mean survival time, dose: 400.0 mg/kg/injection, schedule: Q01DX009 (ip), vehicle: DMSO",0 of 6
COc1cc2c(c(OC)c1OC)-c1ccc(OC)c(=O)cc1C(=O)CC2,survivor count,"T/C endpoint: mean survival time, dose: 15.0 mg/kg/injection, schedule: Q01DX Z (ip), vehicle: saline",6 of 6
